Drawing on the supplement of paper PMC7752906, this text covers Mahalanobis distance for 47 compounds.

Counter-ions that a name gives are not always drawn. The list shows a part of the results. Repeats in this data set agree poorly, so a single value says little.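 Wells held roughly 40 S. mansoni schistosomula, imaged in bright field over time against wells given 0.1% DMSO. The paper defines hits as drugs with a Mahalanobis distance of at least 2.47, three standard deviations above the DMSO control mean. Degeneracy is the proportion of worms classified as opaque.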

For this test, the system named is Schistosoma mansoni schistosomula. The test is described as follows: Mahalanobis distance of static-rate-frequency phenotype descriptors from DMSO controls (dimensionless); higher = stronger phenotypic change versus DMSO. To be noted: 10 µM; 72 h.
Consider `CC(C(=O)O)c1ccc(CC2CCCC2=O)cc1` (configuration not stated) [Loxoprofen], for which the Mahalanobis distance was active: 3.12.

On to `Clc1ccc2c(c1)C(N1CCNCC1)=Nc1ccccc1O2` [Amoxapine], for which the Mahalanobis distance is active: 4.54.

`CC(C)(Oc1ccc(CCNC(=O)c2ccc(Cl)cc2)cc1)C(=O)O` [Bezafibrate]: the Mahalanobis distance was inactive: 1.5.

For the compound `OCCN1CCN(CCCN2c3ccccc3Sc3ccc(C(F)(F)F)cc32)CC1` [fluphenazine], the Mahalanobis distance was inactive: 1.86.

On to `O=C(O)c1ccccc1-c1c2cc(I)c(=O)c(I)c-2oc2c(I)c(O)c(I)cc12` [Erythrosine Sodium], for which the Mahalanobis distance is active: 3.94.

With `CCc1ccc(CCOc2ccc(CC3SC(=O)NC3=O)cc2)nc1` (configuration not stated) [Pioglitazone], the Mahalanobis distance was inactive: 2.47.

Take `Cc1ccc(N(CC2=NCCN2)c2cccc(O)c2)cc1` [Phentolamine]: the Mahalanobis distance is inactive: 2.4.

As for `O=C1c2c(O)cc(CO)cc2C(OC2OC(CO)C(O)C(O)C2O)c2cccc(OC3OC(CO)C(O)C(O)C3O)c21` (configuration not stated) [Casanthranol [cascaroside A Shown]], the Mahalanobis distance was inactive: 2.15.

Regarding `CO[C@H]1/C=C/O[C@@]2(C)Oc3c(C)c(O)c4c(O)c(c(/C=N/N5CCN(C)CC5)c(O)c4c3C2=O)NC(=O)/C(C)=C\C=C\[C@H](C)[C@H](O)[C@@H](C)[C@@H](O)[C@@H](C)[C@H](OC(C)=O)[C@@H]1C` [Rifampin], the Mahalanobis distance was active: 2.95.

As for `Cc1c(Cl)cccc1Nc1ccccc1C(=O)O` [Tolfenamic Acid], the Mahalanobis distance was inactive: 1.69.

As for `COC(=O)[C@H](c1ccccc1Cl)N1CCc2sccc2C1` [Clopidogrel], the Mahalanobis distance was active: 2.61.

Consider `C[C@]12CCC(=O)C=C1CC[C@@H]1[C@@H]2C(=O)C[C@@]2(C)[C@H]1CC[C@]2(O)C(=O)CO` [Cortisone], for which the Mahalanobis distance was inactive: 2.14.

For `CC(=O)[C@@]12O[C@](C)(c3ccccc3)O[C@@H]1C[C@H]1[C@@H]3CCC4=CC(=O)CC[C@]4(C)[C@H]3CC[C@@]12C` [Algestone Acetophenide], the Mahalanobis distance was inactive: 2.18.

Regarding `CN(C)[C@@H]1C(O)=C(C(N)=O)C(=O)[C@@]2(O)C(O)=C3C(=O)c4c(O)cccc4[C@@](C)(O)[C@H]3C[C@@H]12` [Tetracycline], the Mahalanobis distance is inactive: 2.13.

Consider `COc1ccc(CC(C)NCC(O)c2ccc(O)c(NC=O)c2)cc1` (configuration not stated) [Formoterol], for which the Mahalanobis distance is active: 2.53.

With `CC(C)C[C@H](NC(=O)[C@H](Cc1ccccc1)NC(=O)c1cnccn1)B(O)O` [Bortezomib], the Mahalanobis distance was inactive: 1.73.

For the compound `Oc1c(Br)cc(Br)c2cccnc12` [Broxyquinoline], the Mahalanobis distance was inactive: 2.22.

As for `CCOC(=O)N1CCC(=C2c3ccc(Cl)cc3CCc3cccnc32)CC1` [Loratadine], the Mahalanobis distance is inactive: 1.71.

`NC(=O)c1ccccc1O` [Salicylamide]: the Mahalanobis distance was inactive: 1.52.

Take `CCCCCN(C)CCC(O)(P(=O)(O)O)P(=O)(O)O` [Ibandronate Sodium]: the Mahalanobis distance was active: 2.58.

Take `C[Se]CC[C@H](N)C(=O)O` [Selenomethionine]: the Mahalanobis distance was inactive: 2.29.

As for `c1ccc2c(c1)CCCC2C1=NCCN1` (configuration not stated) [Tetrahydrozoline], the Mahalanobis distance is inactive: 1.81.

As for `CCCCN1C[C@H](O)[C@@H](O)[C@H](O)[C@H]1CO` [Miglustat], the Mahalanobis distance is inactive: 1.86.

Turning to `C[C@@H](O)[C@H]1C(=O)N2C(C(=O)O)=C(SCCNC=N)C[C@H]12` [Imipenem], the Mahalanobis distance is active: 3.18.

For `CS(=O)(=O)c1ccc([C@@H](O)[C@@H](CF)NC(=O)C(Cl)Cl)cc1` [Florfenicol], the Mahalanobis distance was inactive: 1.95.

For `Cc1cccc(C)c1NC(=O)c1ccccc1C(=O)O` [Ftaxilide], the Mahalanobis distance is inactive: 2.04.

As to `Nc1ccc(S(=O)(=O)NC(=O)c2ccccc2)cc1` [Sulfabenzamide], the Mahalanobis distance is inactive: 2.14.

For the compound `C[N+](C)(C)CCOP(=O)(O)OP(=O)([O-])OC[C@H]1O[C@@H](n2ccc(N)nc2=O)[C@H](O)[C@@H]1O` [Citicoline], the Mahalanobis distance is inactive: 1.71.

Turning to `CCCc1ncc(C[n+]2ccccc2C)c(N)n1` [Amprolium], the Mahalanobis distance is inactive: 1.64.

As for `Oc1ccc(C2CNCCc3c2cc(O)c(O)c3Cl)cc1` (configuration not stated) [Fenoldopam Mesylate], the Mahalanobis distance is active: 2.91.

For the compound `CC(C(=O)O)c1cccc(Oc2ccccc2)c1` (configuration not stated) [Fenoprofen], the Mahalanobis distance is inactive: 1.45.

Turning to `CCn1cc(C(=O)O)c(=O)c2cc(F)c(N3CCNCC3)nc21` [Enoxacin], the Mahalanobis distance is inactive: 1.63.

As to `OC[C@@H](O)[C@@H](O)[C@H](O)[C@H](O)CO` [Mannitol], the Mahalanobis distance was active: 2.66.

Take `O=C(O)CCCCCCCC(=O)O` [Azelaic Acid]: the Mahalanobis distance is inactive: 2.09.

Take `O=C(O)CN1C(=O)c2cccc3cccc(c23)C1=O` [Alrestatin]: the Mahalanobis distance is inactive: 1.84.

As for `CCCCN(CCCC)CCCOC(=O)c1ccc(N)cc1` [Butacaine], the Mahalanobis distance is inactive: 1.65.

On to `Cc1ccc(C(=O)c2ccc(CC(=O)O)n2C)cc1` [Tolmetin Sodium], for which the Mahalanobis distance was inactive: 1.17.

Take `CC(=O)OCC(=O)[C@@]1(O)CC[C@H]2[C@@H]3CCC4=CC(=O)C=C[C@]4(C)[C@@]3(Cl)[C@@H](Cl)C[C@@]21C` [Dichlorisone Acetate]: the Mahalanobis distance was inactive: 1.54.

In the case of `Cc1ncc(C[n+]2csc(CCO)c2C)c(N)n1` [Thiamine], the Mahalanobis distance is inactive: 1.58.

As to `CC(C)c1c(C(=O)Nc2ccccc2)c(-c2ccccc2)c(-c2ccc(F)cc2)n1CC[C@@H](O)C[C@@H](O)CC(=O)O` [Atorvastatin Calcium], the Mahalanobis distance was active: 3.13.

With `CCCCCCCCCCCCCCCC(=O)OC/C=C(C)/C=C/C=C(C)/C=C/C1=C(C)CCCC1(C)C` [Retinyl Palmitate], the Mahalanobis distance is inactive: 2.02.

As for `NS(=O)(=O)c1cc(C2(O)NC(=O)c3ccccc32)ccc1Cl` (configuration not stated) [Chlorthalidone], the Mahalanobis distance was inactive: 2.1.

As for `CC[N+](C)(C)c1cccc(O)c1` [Edrophonium Chloride], the Mahalanobis distance was inactive: 2.05.

Turning to `Nc1[nH]cnc2ncnc1-2` [Adenine], the Mahalanobis distance was inactive: 1.74.

With `CCCOc1cc(N)ccc1C(=O)OCCN(CC)CC` [Propoxycaine Hydrochloride], the Mahalanobis distance is inactive: 1.5.

Turning to `OC(Cn1cncn1)(Cn1cncn1)c1ccc(F)cc1F` [Fluconazole], the Mahalanobis distance was inactive: 1.4.

For the compound `CN1CCN(CC/C=C2/c3ccccc3Sc3ccc(S(=O)(=O)N(C)C)cc32)CC1` [Thiothixene], the Mahalanobis distance was inactive: 2.43.
